In patent US8034377B2, “DHA esters and use thereof in treatment and prevention of cardiovascular disease” (Pierre Fabre Medicament, priority 2006, dated 2011):
At least one compound was matched to its structure with a doubt left.

Amino acid sequences for entries named in this document (tags omitted).
UniProt P22460, whole entry: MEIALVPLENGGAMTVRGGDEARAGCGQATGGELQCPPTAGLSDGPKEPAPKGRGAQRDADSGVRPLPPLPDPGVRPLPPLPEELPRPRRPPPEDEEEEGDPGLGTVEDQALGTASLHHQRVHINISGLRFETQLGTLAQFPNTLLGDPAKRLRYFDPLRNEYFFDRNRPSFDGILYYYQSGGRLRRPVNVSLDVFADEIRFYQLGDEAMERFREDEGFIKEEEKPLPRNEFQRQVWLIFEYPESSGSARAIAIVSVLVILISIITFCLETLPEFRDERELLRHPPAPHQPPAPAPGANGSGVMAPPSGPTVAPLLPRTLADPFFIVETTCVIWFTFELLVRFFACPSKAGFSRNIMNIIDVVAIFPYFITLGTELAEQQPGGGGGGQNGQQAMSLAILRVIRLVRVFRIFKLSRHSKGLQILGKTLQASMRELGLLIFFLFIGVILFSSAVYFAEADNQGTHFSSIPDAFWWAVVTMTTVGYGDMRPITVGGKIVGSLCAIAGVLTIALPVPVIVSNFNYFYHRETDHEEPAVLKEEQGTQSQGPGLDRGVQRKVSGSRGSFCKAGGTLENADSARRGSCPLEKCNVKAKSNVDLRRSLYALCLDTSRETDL

Molecular target: T1, human Kv 1.5 channel (hKv 1.5) (Homo sapiens, UniProt P22460)
T1 construct: expressed in transfected cells
Assay: Ultrarapid potassium current (IKur), whole-cell patch-clamp in HEK 293-hKv 1.5 cells
Type: cell-based
Settings: human Kv 1.5 channels transfected in HEK 293 cells; comparison DHA vs EPA
From the text: The cardiac action potential is the basic electrical unit of excitable cardiac cells and represents the activity of several types of ion channels responsible for the various phases of the action potential. Different types of action potentials correspond to different cardiac regions, thus allowing sequential and coordinated activity in these regions. For this reason, Kv 1.5 potassium channels, coded by the KCNA5 gene, are expressed only in auricle tissue and are responsible for the ultrarapid potassium current (IKur) which acts in the repolarization of the auricular action potential. This highly localized expression of Kv 1.5 is in fact a target of choice in the treatment of auricular fibrillation, a pathology in which changes in auricular action potentials are observed.
Thus, the effects of DHA and EPA on IKur were studied. For this purpose, the human isoform of the Kv 1.5 channel (hKv 1.5) was transfected in a stable manner in HEK 293 (human embryonic kidney) cells and the current resulting from the activity of these channels was studied using a whole-cell patch-clamp technique. […]
IKur is induced every 15 seconds by 300 ms, +60 mV depolarizing pulses from a −80 mV holding potential, followed by −50 mV repolarization. […] The amplitude of the current at the end of the pulse is determined during the last 20 ms of the depolarizing pulse. […]

CC/C=C\C/C=C\C/C=C\C/C=C\C/C=C\C/C=C\CCC(=O)O [DHA, docosahexaenoic acid]
Effect on ultrarapid potassium current (IKur), in words: inhibits, more strongly than EPA and in a concentration-dependant manner
